The subject of the experiment is mice, LPC-1 plasma cell tumor ip, median survival T/C. Briefly: NCI In Vivo Anticancer Drug Screen. Data for tumor model Lieberman Plasma Cell No. 1 (LPC-1) (intraperitoneal) in unknown mice. Conditions: T/C endpoint: median survival time, higher T/C = longer survival. Here is the method: The antitumor activity of compounds was measured in mice bearing transplantable tumors. Survival or tumor size were measured and the results are expressed as the measurement made in the treated group (T) divided by the measurement made in the vehicle treated control group (C). The tumor model used in this assay is Lieberman Plasma Cell No. 1 (LPC-1) (intraperitoneal) in unknown mice

[1] abbreviates: dose: 8.4 mg/kg/injection, schedule: Q01DX028 (sc), vehicle: saline.

The text below walks through data of PubChem BioAssay AID344 (DTP/NCI, 2004).

The list is a part of this screen's results and no random one: it is rich in T/C values a quarter to a half above the control, in often repeated tests (any T/C) and in doses without a T/C. Other doses and runs of a compound stand elsewhere. T/C gives the treated animals as a percentage of the vehicle group. Some entries give survivors of the animals treated and no T/C: the source holds a T/C of zero for them, seemingly a mark for toxic or unscored doses. Some doses without a T/C left all or most animals alive at the check, yet need not have been tolerated: survival well below the control is almost never listed, so the zero probably covers shortened survival too. Survivors were counted at the toxicity check, usually on the fifth day, unless a day is given; later deaths do not show. Schedules are NCI's codes, taken here to give the interval after Q, in days (D) or hours (H), and the number of doses after X. Some entries were tested several times; the values are given in rising order. Some schedules carry Z or #; the key to these is not given. For survival time, the PubChem record calls one and a half times the control and up active, and a quarter to a half above the control has no call in these data; cut-offs in other NCI protocols can differ. Some T/C values carry the count of animals alive at the toxicity check (mostly the fifth day); where none is given, no animal had died by that day.

Consider `CS(=O)(=O)OCCC(=O)NCNC(=O)CCOS(C)(=O)=O`, for which, for the setting “dose: 6.25 mg/kg/injection, schedule: Q01DX012 (sc), vehicle: carboxymethylcellulose (CMC)”, the T/C is 134 % of control.

On to `O=C(O)c1[nH]c(=O)[nH]c(=O)c1F`, for which, for the setting “dose: 108.0 mg/kg/injection, schedule: Q01DX028 (sc), vehicle: saline”, the survivor count is given as 10 of 10.

As to `O=c1[nH]c(=O)n(C2CC(O)C(CO)O2)cc1F` (centres undefined), the T/C is, setting by setting: under setting [1], 111 [7 of 8 alive], 119, 122 [6 of 8 alive], 125 % of control; (dose: 14.0 mg/kg/injection, schedule: Q01DX028 (sc), vehicle: saline) 111 [7 of 8 alive], 116, 127, 135, 138 % of control; (dose: 23.0 mg/kg/injection, schedule: Q01DX028 (sc), vehicle: saline) 125 [7 of 8 alive], 128, 130, 138 [7 of 8 alive], 155 % of control [7 of 8 alive]; (dose: 39.0 mg/kg/injection, schedule: Q01DX028 (sc), vehicle: saline) 122, 127, 130, 133, 182, 273 % of control; (dose: 65.0 mg/kg/injection, schedule: Q01DX028 (sc), vehicle: saline) 97 [7 of 8 alive], 111, 113, 116, 116 [7 of 8 alive], 136 % of control. Further, the survivor count under setting [1] was 5 of 8.

On to `N[C@@H](Cc1ccc(N(CCCl)CCCl)cc1)C(=O)O`, for which the T/C (dose: 0.39 mg/kg/injection, schedule: Q01DX028 (sc), vehicle: saline) is 134 % of control [11 of 12 alive]; the T/C (dose: 0.5 mg/kg/injection, schedule: Q01DX028 (sc), vehicle: methylcellulose (MC)) was 125 % of control; the T/C (dose: 0.93 mg/kg/injection, schedule: Q01DX005 (oral), vehicle: carboxymethylcellulose (CMC)) was 133 % of control [7 of 8 alive]; the T/C (dose: 0.93 mg/kg/injection, schedule: Q## X010 (oral), vehicle: carboxymethylcellulose (CMC)) was 133 % of control [6 of 8 alive]; the T/C (dose: 0.93 mg/kg/injection, schedule: Q## X015 (oral), vehicle: carboxymethylcellulose (CMC)) is 133 % of control; the T/C (dose: 1.0 mg/kg/injection, schedule: Q01DX028 (sc), vehicle: methylcellulose (MC)) was 144 % of control. Besides, the T/C (dose: 1.08 mg/kg/injection, schedule: Q01DX028 (sc), vehicle: saline) was 134 [11 of 12 alive], 165 [11 of 12 alive], 179, 189 % of control [6 of 8 alive]; the T/C (dose: 1.8 mg/kg/injection, schedule: Q01DX028 (sc), vehicle: saline) was 110 [11 of 12 alive], 168, 178 [7 of 8 alive], 202 % of control [10 of 12 alive]; the T/C (dose: 1.87 mg/kg/injection, schedule: Q## X010 (oral), vehicle: carboxymethylcellulose (CMC)) is 142 % of control [6 of 8 alive]; the T/C (dose: 2.0 mg/kg/injection, schedule: Q01DX028 (sc), vehicle: methylcellulose (MC)) was 148 % of control; the T/C (dose: 7.5 mg/kg/injection, schedule: Q01DX005 (ip), vehicle: saline) was 126 % of control [7 of 8 alive]; the T/C (dose: 9.5 mg/kg/injection, schedule: Q01DX001 (oral), vehicle: carboxymethylcellulose (CMC)) was 140 % of control. Moreover, the survivor count is, setting by setting: (dose: 1.25 mg/kg/injection, schedule: Q01DX024 (ip), vehicle: saline) 5 of 8; (dose: 1.9 mg/kg/injection, schedule: Q## X010 (ip), vehicle: saline) 5 of 8; (dose: 2.5 mg/kg/injection, schedule: Q01DX024 (ip), vehicle: saline) 5 of 8; (dose: 3.0 mg/kg/injection, schedule: Q01DX005 (sc), vehicle: saline) 5 of 8; (dose: 3.8 mg/kg/injection, schedule: Q01DX005 (ip), vehicle: saline) 4 of 8; (dose: 5.0 mg/kg/injection, schedule: Q01DX005 (sc), vehicle: saline) 3 of 8. Further, the survivor count runs as follows: (dose: 7.5 mg/kg/injection, schedule: Q## X010 (ip), vehicle: saline) 4 of 8; (dose: 7.5 mg/kg/injection, schedule: Q## X015 (oral), vehicle: carboxymethylcellulose (CMC)) 5 of 8 and 6 of 8; (dose: 8.0 mg/kg/injection, schedule: Q01DX028 (sc), vehicle: methylcellulose (MC)) 9 of 10; (dose: 8.4 mg/kg/injection, schedule: Q01DX001 (sc), vehicle: saline) 5 of 8; (dose: 14.0 mg/kg/injection, schedule: Q01DX001 (sc), vehicle: saline) 2 of 8; (dose: 14.0 mg/kg/injection, schedule: Q01DX005 (sc), vehicle: saline) 5 of 8. Further, the survivor count (dose: 15.0 mg/kg/injection, schedule: Q01DX005 (oral), vehicle: carboxymethylcellulose (CMC)) is 5 of 8 and 7 of 8; the survivor count (dose: 15.0 mg/kg/injection, schedule: Q## X010 (oral), vehicle: carboxymethylcellulose (CMC)) is recorded as 7 of 8; the survivor count (dose: 16.0 mg/kg/injection, schedule: Q01DX028 (sc), vehicle: methylcellulose (MC)) was 8 of 10; the survivor count (dose: 18.0 mg/kg/injection, schedule: Q01DX024 (oral), vehicle: carboxymethylcellulose (CMC)) is 8 of 8; the survivor count (dose: 23.0 mg/kg/injection, schedule: Q01DX001 (sc), vehicle: saline) is recorded as 4 of 8; the survivor count (dose: 30.0 mg/kg/injection, schedule: Q## X010 (oral), vehicle: carboxymethylcellulose (CMC)) is given as 7 of 8. Moreover, the survivor count by setting is: (dose: 30.0 mg/kg/injection, schedule: Q## X015 (oral), vehicle: carboxymethylcellulose (CMC)) 8 of 8; (dose: 38.0 mg/kg/injection, schedule: Q01DX001 (oral), vehicle: carboxymethylcellulose (CMC)) 7 of 8; (dose: 60.0 mg/kg/injection, schedule: Q## X010 (oral), vehicle: carboxymethylcellulose (CMC)) 4 of 8; (dose: 60.0 mg/kg/injection, schedule: Q## X015 (oral), vehicle: carboxymethylcellulose (CMC)) 5 of 8; (dose: 75.0 mg/kg/injection, schedule: Q01DX001 (oral), vehicle: carboxymethylcellulose (CMC)) 8 of 8; (dose: 130.0 mg/kg/injection, schedule: Q01DX001 (ip), vehicle: saline) 1 of 8. Also, the survivor count reads like this: (dose: 150.0 mg/kg/injection, schedule: Q01DX001 (oral), vehicle: carboxymethylcellulose (CMC)) 6 of 8; (dose: 300.0 mg/kg/injection, schedule: Q01DX001 (oral), vehicle: carboxymethylcellulose (CMC)) 7 of 8.

For the compound `C[C@]12C=CC(=O)C=C1CC[C@@H]1[C@@H]2C(=O)C[C@@]2(C)[C@H]1CC[C@]2(O)C(=O)CO`, the survivor count is, setting by setting: (dose: 8.0 mg/kg/injection, schedule: Q01DX028 (sc), vehicle: water) 9 of 12; (dose: 64.0 mg/kg/injection, schedule: Q01DX028 (sc), vehicle: water) 11 of 12; (dose: 100.0 mg/kg/injection, schedule: Q01DX028 (sc), vehicle: water) 5 of 9.

Consider `OC(CBr)C(O)C(O)C(O)CBr` (centres undefined), for which, for the setting “dose: 250.0 mg/kg/injection, schedule: Q01DX028 (sc), vehicle: carboxymethylcellulose (CMC)”, the T/C is 126 % of control [7 of 8 alive].

As for `N=[N+]=CC(=O)OCC(N)C(=O)O` (centres undefined), the survivor count reads like this: (dose: 5.0 mg/kg/injection, schedule: Q01DX028 (sc), vehicle: water) 0 of 10; (dose: 8.4 mg/kg/injection, schedule: Q01DX028 (sc), vehicle: water) 0 of 10.

For `CCOC(N)=O`, the T/C was 139 % of control [8 of 10 alive] (dose: 200.0 mg/kg/injection, schedule: Q01DX028 (sc), vehicle: saline) and 129 % of control (dose: 256.0 mg/kg/injection, schedule: Q01DX028 (sc), vehicle: other). For the same compound, under “dose: 800.0 mg/kg/injection, schedule: Q01DX028 (sc), vehicle: saline”, the survivor count is listed as 6 of 10.

`CC(C)=CCC/C(C)=C/Cc1cc2ccc(=O)oc2cc1O`: the survivor count (dose: 6.25 mg/kg/injection, schedule: Q01DX028 (sc), vehicle: saline) is given as 5 of 8; the survivor count (dose: 12.5 mg/kg/injection, schedule: Q01DX028 (sc), vehicle: saline) was 3 of 8; the survivor count (dose: 25.0 mg/kg/injection, schedule: Q01DX028 (sc), vehicle: saline) is on record as 4 of 8; the survivor count (dose: 50.0 mg/kg/injection, schedule: Q01DX028 (sc), vehicle: saline) was 5 of 8.
